Results: EP1752538A1, “Human bikunin” (BAYER CORPORATION, priority 1996, dated 1997)
At least one peptide structure holds a part that was inferred or is arguable (an end, a ring closure or a residue).

Assay: Isoelectric point by isoelectric focusing (Ampholine PAGplate pH 3.5 to 9.5)
Assay type: physicochemical

CC[C@H](C)[C@H](N)C(=O)N[C@@H](Cc1c[nH]cn1)C(=O)N[C@@H](CC(=O)O)C(=O)N[C@@H](Cc1ccccc1)C(=O)N[C@H]1CSSC[C@@H](C(=O)N[C@@H](C)C(=O)N[C@H](C(=O)N[C@H](C(=O)O)C(C)C)[C@@H](C)O)NC(=O)[C@H](CCCCN)NC(=O)[C@H](CCCCN)NC(=O)[C@H](CC(C)C)NC(=O)[C@@H]2CSSC[C@@H]3NC(=O)[C@H](CO)NC(=O)CNC(=O)[C@H](CC(=O)O)NC(=O)[C@H]([C@@H](C)O)NC(=O)[C@H](C(C)C)NC(=O)[C@H](CC(N)=O)NC(=O)[C@H](Cc4ccc(O)cc4)NC(=O)[C@H](Cc4c[nH]c5ccccc45)NC(=O)[C@H](Cc4c[nH]c5ccccc45)NC(=O)[C@H](CCCNC(=N)N)NC(=O)[C@@H]4CCCN4C(=O)[C@H](CCSC)NC(=O)[C@H](CO)NC(=O)[C@H](C)NC(=O)[C@H](CCCNC(=N)N)NC(=O)[C@H](CSSC[C@H](NC(=O)CNC(=O)CNC(=O)[C@H](Cc4ccc(O)cc4)NC(=O)[C@H](C(C)C)NC(=O)[C@H](Cc4ccccc4)NC(=O)[C@H](CC(C)C)NC(=O)[C@H](CCC(N)=O)NC3=O)C(=O)N[C@@H](CC(=O)O)C(=O)NCC(=O)N[C@@H](CC(N)=O)C(=O)N[C@@H](CO)C(=O)N[C@@H](CC(N)=O)C(=O)N[C@@H](CC(N)=O)C(=O)N[C@@H](Cc3ccc(O)cc3)C(=O)N[C@@H](CC(C)C)C(=O)N[C@@H]([C@@H](C)O)C(=O)N[C@@H](CCCCN)C(=O)N[C@@H](CCC(=O)O)C(=O)N[C@@H](CCC(=O)O)C(=O)N2)NC(=O)[C@H](CCCNC(=N)N)NC(=O)CNC(=O)[C@H](C(C)C)NC(=O)[C@H](C(C)C)NC(=O)[C@H](CCCCN)NC(=O)[C@H](CO)NC(=O)[C@H](C(C)C)NC(=O)[C@H](CC(C)C)NC1=O [bikunin (7-64)]
pI (gel pH 3.5 to 9.5, listed as Refolded placental bikunin (7-64)): 8.85

CC[C@H](C)[C@@H]1NC(=O)[C@H](Cc2ccccc2)NC(=O)[C@H](CC(N)=O)NC(=O)[C@H](CC(N)=O)NC(=O)[C@@H]2CSSC[C@@H]3NC(=O)[C@H](C)NC(=O)[C@H](CCC(=O)O)NC(=O)[C@H](CCC(=O)O)NC(=O)[C@H](CO)NC(=O)[C@H](CCCNC(=N)N)NC(=O)[C@H](Cc4ccc(O)cc4)NC(=O)[C@H](CO)NC(=O)[C@H](CC(N)=O)NC(=O)[C@H](CCCCN)NC(=O)[C@H](CC(N)=O)NC(=O)CNC(=O)[C@H](CCCNC(=N)N)NC(=O)[C@H](CSSC[C@H](NC(=O)[C@@H]4CCCN4C(=O)CNC(=O)[C@H]([C@@H](C)O)NC(=O)[C@H](C(C)C)NC(=O)[C@H](C)NC(=O)[C@H](CC(N)=O)NC(=O)[C@H](C)NC(=O)[C@H]([C@@H](C)O)NC(=O)[C@@H](NC(=O)[C@H](Cc4ccc(O)cc4)NC(=O)[C@H](CCC(=O)O)NC(=O)[C@H](CCC(=O)O)NC(=O)[C@@H](N)Cc4ccc(O)cc4)CSSC[C@@H](C(=O)N[C@@H](Cc4ccccc4)C(=O)N[C@@H](CCCNC(=N)N)C(=O)N[C@@H](CCC(N)=O)C(=O)O)NC(=O)[C@H](CCCNC(=N)N)NC(=O)[C@H](CC(C)C)NC(=O)[C@H](CCSC)NC3=O)C(=O)N[C@@H](CCCNC(=N)N)C(=O)N[C@@H](C)C(=O)N[C@@H](CO)C(=O)N[C@@H](Cc3ccccc3)C(=O)N3CCC[C@H]3C(=O)N[C@@H](CCCNC(=N)N)C(=O)N[C@@H](Cc3c[nH]c4ccccc34)C(=O)N[C@@H](Cc3ccc(O)cc3)C(=O)N[C@@H](Cc3ccccc3)C(=O)N[C@@H](CC(=O)O)C(=O)N[C@@H](C(C)C)C(=O)N[C@@H](CCC(=O)O)C(=O)N[C@@H](CCCNC(=N)N)C(=O)N[C@@H](CC(N)=O)C(=O)N[C@@H](CO)C(=O)N2)NC(=O)CNC(=O)CNC(=O)[C@H](Cc2ccc(O)cc2)NC1=O [bikunin (102-159)]
pI (gel pH 3.5 to 9.5): 8.3

CC[C@H](C)[C@H](N)C(=O)N[C@@H](Cc1c[nH]cn1)C(=O)N[C@@H](CC(=O)O)C(=O)N[C@@H](Cc1ccccc1)C(=O)N[C@H]1CSSC[C@@H](C(=O)N[C@@H](C)C(=O)N[C@H](C(=O)N[C@H](C(=O)O)C(C)C)[C@@H](C)O)NC(=O)[C@H](CCCCN)NC(=O)[C@H](CCCCN)NC(=O)[C@H](CC(C)C)NC(=O)[C@@H]2CSSC[C@@H]3NC(=O)[C@H](CO)NC(=O)CNC(=O)[C@H](CC(=O)O)NC(=O)[C@H]([C@@H](C)O)NC(=O)[C@H](C(C)C)NC(=O)[C@H](CC(N)=O)NC(=O)[C@H](Cc4ccc(O)cc4)NC(=O)[C@H](Cc4c[nH]c5ccccc45)NC(=O)[C@H](Cc4c[nH]c5ccccc45)NC(=O)[C@H](CCCNC(=N)N)NC(=O)[C@@H]4CCCN4C(=O)[C@H](CCSC)NC(=O)[C@H](CO)NC(=O)[C@H](C)NC(=O)[C@H](CCCNC(=N)N)NC(=O)[C@H](CSSC[C@H](NC(=O)CNC(=O)CNC(=O)[C@H](Cc4ccc(O)cc4)NC(=O)[C@H](C(C)C)NC(=O)[C@H](Cc4ccccc4)NC(=O)[C@H](CC(C)C)NC(=O)[C@H](CCC(N)=O)NC3=O)C(=O)N[C@@H](CC(=O)O)C(=O)NCC(=O)N[C@@H](CC(N)=O)C(=O)N[C@@H](CO)C(=O)N[C@@H](CC(N)=O)C(=O)N[C@@H](CC(N)=O)C(=O)N[C@@H](Cc3ccc(O)cc3)C(=O)N[C@@H](CC(C)C)C(=O)N[C@@H]([C@@H](C)O)C(=O)N[C@@H](CCCCN)C(=O)N[C@@H](CCC(=O)O)C(=O)N[C@@H](CCC(=O)O)C(=O)N2)NC(=O)[C@H](CCCNC(=N)N)NC(=O)CNC(=O)[C@H](C(C)C)NC(=O)[C@H](C(C)C)NC(=O)[C@H](CCCCN)NC(=O)[C@H](CO)NC(=O)[C@H](C(C)C)NC(=O)[C@H](CC(C)C)NC1=O [bikunin(7-64)]
pI (gel pH 3.5 to 9.5, listed as Placental bikunin (7-64)): ≥ 9.5
